Data from paper doi:10.1101/2025.05.28.656718.
No constants are given. Whether binding was seen depends on the method and setting. In cells and extracts the contact can be indirect. Some binding calls cover weakened binding; strength is not graded here. For some of these results: Tags and fused reporters may be left off the sequences shown.

Sequences of proteins named here, by UniProt entry; tags and fusion partners are left off. A change or cut given only in a name is not applied to a line headed by its entry. A line that says so, or that is headed by a name, gives the form on record, which may keep a tag or linker.
Endogenous PKM1 (293T cells) (P14618-2, form named): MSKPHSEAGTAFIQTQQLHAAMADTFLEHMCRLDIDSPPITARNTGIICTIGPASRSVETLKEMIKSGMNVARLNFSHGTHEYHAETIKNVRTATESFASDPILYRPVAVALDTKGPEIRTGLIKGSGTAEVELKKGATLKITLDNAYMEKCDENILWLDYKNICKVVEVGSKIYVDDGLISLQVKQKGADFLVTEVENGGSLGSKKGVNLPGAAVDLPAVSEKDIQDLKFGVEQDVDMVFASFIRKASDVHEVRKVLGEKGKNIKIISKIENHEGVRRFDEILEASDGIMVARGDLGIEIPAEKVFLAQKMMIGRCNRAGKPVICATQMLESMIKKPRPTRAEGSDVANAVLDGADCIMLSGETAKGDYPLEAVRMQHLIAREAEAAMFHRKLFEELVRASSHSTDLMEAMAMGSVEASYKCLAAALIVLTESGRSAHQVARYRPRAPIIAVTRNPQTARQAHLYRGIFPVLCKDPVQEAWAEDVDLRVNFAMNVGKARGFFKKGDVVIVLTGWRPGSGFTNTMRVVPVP
Endogenous PKM1 (mouse dorsal root ganglia) (P52480-2, form named): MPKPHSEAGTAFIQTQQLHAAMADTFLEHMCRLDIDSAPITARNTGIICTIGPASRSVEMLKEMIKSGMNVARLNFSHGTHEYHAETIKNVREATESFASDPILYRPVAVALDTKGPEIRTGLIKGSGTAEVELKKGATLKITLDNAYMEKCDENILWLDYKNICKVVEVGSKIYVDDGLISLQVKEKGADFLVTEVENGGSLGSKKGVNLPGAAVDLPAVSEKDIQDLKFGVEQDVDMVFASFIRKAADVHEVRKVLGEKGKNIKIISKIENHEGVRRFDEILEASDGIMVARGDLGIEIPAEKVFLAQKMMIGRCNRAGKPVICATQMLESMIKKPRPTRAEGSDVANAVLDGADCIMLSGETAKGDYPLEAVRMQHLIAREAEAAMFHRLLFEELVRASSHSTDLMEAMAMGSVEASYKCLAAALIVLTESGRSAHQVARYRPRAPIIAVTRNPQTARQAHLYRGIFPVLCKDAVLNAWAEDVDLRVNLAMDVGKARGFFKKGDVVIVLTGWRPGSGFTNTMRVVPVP
UniProt P05412: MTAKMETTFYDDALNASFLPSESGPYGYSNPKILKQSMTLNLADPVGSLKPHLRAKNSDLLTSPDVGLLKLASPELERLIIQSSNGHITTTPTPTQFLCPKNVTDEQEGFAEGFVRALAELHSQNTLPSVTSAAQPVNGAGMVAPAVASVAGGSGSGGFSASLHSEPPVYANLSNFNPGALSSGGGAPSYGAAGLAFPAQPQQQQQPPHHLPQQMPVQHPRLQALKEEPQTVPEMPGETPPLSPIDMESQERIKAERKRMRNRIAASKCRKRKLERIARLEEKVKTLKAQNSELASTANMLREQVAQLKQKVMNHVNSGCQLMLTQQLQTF

How the values were obtained:
[1] = molecular target: T1, SARM1 ARM-GFP (residues 28-408) (human) (UniProt Q6SZW1); experiment: co-IP
T1 sequence: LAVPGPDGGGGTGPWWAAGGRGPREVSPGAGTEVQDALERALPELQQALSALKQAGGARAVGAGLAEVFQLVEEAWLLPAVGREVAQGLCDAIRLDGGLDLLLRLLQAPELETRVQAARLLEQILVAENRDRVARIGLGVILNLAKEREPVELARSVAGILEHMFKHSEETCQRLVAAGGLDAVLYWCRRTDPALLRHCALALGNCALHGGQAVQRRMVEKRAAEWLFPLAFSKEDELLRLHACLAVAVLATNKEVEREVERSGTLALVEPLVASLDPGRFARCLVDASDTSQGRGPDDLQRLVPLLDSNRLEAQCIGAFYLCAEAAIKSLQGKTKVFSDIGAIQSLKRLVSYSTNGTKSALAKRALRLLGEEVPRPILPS

[2] = molecular target: T2, SARM1 ARM-SAM-GFP (residues 28-559) (human) (UniProt Q6SZW1); experiment: co-IP
T2 sequence: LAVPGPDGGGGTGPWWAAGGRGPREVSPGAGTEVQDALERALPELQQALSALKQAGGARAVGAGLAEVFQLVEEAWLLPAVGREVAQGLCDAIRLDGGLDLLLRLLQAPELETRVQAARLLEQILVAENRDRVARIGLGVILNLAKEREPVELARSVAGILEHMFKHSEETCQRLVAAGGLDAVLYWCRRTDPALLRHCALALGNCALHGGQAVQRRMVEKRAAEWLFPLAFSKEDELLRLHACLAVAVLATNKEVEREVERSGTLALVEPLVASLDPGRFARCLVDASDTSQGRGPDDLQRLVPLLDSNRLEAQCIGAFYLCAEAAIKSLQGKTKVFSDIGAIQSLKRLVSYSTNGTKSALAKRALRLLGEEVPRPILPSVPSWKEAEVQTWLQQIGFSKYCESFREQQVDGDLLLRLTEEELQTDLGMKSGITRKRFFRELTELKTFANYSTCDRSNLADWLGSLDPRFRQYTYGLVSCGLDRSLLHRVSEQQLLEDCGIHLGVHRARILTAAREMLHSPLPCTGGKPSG

[3] = molecular target: T3, SARM1 SAM-TIR-GFP (residues 408-724) (human) (UniProt Q6SZW1); experiment: co-IP
T3 sequence: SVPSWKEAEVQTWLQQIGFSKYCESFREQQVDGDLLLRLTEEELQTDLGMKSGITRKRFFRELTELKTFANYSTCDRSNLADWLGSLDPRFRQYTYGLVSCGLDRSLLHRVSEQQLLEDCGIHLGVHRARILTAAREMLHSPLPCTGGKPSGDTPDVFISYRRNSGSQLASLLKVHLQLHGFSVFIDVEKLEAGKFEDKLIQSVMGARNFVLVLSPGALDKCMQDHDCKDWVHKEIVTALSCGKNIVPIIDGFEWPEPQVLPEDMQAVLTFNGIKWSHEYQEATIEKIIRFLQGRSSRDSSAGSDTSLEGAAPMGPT

SARM1-HA (human) = molecular target: T4, SARM1-HA (human) (UniProt Q6SZW1); experiment: co-IP
T4 sequence: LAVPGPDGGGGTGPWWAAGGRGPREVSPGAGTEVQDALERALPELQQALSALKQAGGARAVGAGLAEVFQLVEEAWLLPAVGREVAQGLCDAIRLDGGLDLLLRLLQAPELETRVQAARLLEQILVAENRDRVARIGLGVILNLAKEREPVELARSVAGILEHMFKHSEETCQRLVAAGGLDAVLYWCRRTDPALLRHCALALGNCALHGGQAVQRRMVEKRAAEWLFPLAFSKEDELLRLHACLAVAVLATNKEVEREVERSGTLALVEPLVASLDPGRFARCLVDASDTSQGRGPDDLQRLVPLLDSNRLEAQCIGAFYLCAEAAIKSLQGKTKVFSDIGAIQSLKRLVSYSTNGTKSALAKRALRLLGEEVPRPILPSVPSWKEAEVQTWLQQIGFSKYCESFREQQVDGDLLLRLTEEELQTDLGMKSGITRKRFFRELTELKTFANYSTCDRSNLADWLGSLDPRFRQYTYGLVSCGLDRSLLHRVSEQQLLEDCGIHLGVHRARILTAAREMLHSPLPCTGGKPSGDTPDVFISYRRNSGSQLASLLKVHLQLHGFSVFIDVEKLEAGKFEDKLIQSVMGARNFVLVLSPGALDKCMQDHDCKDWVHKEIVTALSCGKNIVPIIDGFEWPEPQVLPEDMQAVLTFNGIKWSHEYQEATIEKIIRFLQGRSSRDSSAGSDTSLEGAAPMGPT

[4] = molecular target: T5, SARM1-HaloTag-C58 (human) (UniProt Q6SZW1); experiment: split reporter
T5 sequence: T4 sequence

[5] = molecular target: T6, Endogenous SARM1 (mouse dorsal root ganglia) (mouse (endogenous in DRG)) (UniProt Q6PDS3); experiment: co-IP
T6 sequence: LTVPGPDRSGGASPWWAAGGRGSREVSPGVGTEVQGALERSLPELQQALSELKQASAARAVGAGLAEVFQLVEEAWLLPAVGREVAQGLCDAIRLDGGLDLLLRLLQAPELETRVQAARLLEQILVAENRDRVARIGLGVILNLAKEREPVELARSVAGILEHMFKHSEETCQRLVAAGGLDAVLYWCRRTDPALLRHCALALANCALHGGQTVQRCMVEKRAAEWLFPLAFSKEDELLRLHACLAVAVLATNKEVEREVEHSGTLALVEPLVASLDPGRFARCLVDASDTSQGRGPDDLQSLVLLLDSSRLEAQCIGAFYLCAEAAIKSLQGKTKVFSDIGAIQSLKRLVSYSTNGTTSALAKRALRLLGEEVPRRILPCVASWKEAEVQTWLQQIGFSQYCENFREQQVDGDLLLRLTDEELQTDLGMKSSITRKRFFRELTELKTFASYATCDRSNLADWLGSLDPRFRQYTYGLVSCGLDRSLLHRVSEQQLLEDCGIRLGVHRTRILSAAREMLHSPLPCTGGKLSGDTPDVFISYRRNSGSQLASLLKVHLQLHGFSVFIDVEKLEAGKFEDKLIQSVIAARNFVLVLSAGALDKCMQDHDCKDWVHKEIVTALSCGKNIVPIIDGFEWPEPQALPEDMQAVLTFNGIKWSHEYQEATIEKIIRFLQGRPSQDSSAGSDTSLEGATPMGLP

FLAG-PKM1, full length (residues 1-531) (from UniProt P14618-2 1-531) (enzyme)
binding [1]: no binding
binding [2]: no binding
binding [3]: binds
binding (SARM1-HA (human)): binds

Endogenous PKM1 (HT22 cells) (from UniProt P52480-2 1-531) (enzyme)
binding (SARM1-HA (human)): binds

HaloTag-N58-c-Jun (from UniProt P05412 1-331)
binding [4]: no binding

Endogenous PKM1 (mouse dorsal root ganglia) (from UniProt P52480-2 1-531) (enzyme)
binding [5]: binds

HaloTag-N58-PKM1-FLAG (from UniProt P14618-2 1-531) (enzyme)
binding [4]: binds

Endogenous PKM1 (293T cells) (from UniProt P14618-2 1-531) (enzyme)
binding (SARM1-HA (human)): binds

FLAG-PKM2, full length (residues 1-531) (from UniProt P14618-1 1-531) (enzyme)
binding (SARM1-HA (human)): binds
